Measurements reported in PubChem BioAssay AID1259254 (NCATS, 2017).
Screen: 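Gene knock-downs that lead to re-replication, shown by excess G2 DNA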 (primary screen). Cells: human HCT116 colorectal cancer cells. Reagents: single siRNA against human genes. Time to read-out: 3 days. Detection: 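Nuclei stained with Hoechst and imaged; cell-cycle phase assigned by DNA content; G2 share scaled per plate, non-targeting siRNA 0%, GMNN siRNA 100%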. Direction: G2 robust z-score: higher = more G2 cells, more excess DNA replication. Rule for the call: 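An siRNA counts as active if its G2 robust z-score lies at least 5 MADs above the screen median; here such calls match roughly 38% of GMNN control or more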.
This is one part, drawn at random, of about 59,000 reagents tested. Of all reagents, about 1,550 (2.6%) are marked active. 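G2 share is only a proxy for re-replication; each gene was hit by three separate siRNAs, and active genes were retested.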 A number with no mark means an inactive call. The numbers tell different reagents against one gene apart. Further read-outs or replicates are left out here. No sequences are given here. Not stated in the record: the amount of reagent.

G2 robust z-score, by gene symbol and reagent
FAM13C: #1 2.29; #2 0.339; #3 1.86
MTERF3: #1 -1.07; #2 0.0532; #3 -0.414
CMA1: #1 0.38; #2 1.37; #3 -0.319
FABP5P10: #1 0.469; #2 1.44; #3 0.965
AMOTL2: #1 -0.998; #2 0.549; #3 -0.771
HOXB2: #1 -0.434; #2 -0.947; #3 1.09
FGF20: #1 -0.071; #2 4.83; #3 0.55
FAM217A: #1 0.401; #2 0.51; #3 1.67
COX5B: #1 0.453; #2 0.636; #3 -0.791
GABRR2: #1 5.19 (active); #2 -0.71; #3 -0.579
NBAS: #1 -0.73; #2 0.153; #3 -0.0878
SPEG: #1 -0.528; #2 0.317; #3 -0.743
AKAP5: #1 -0.341; #2 0.547; #3 0.362
COL12A1: #1 -0.619; #2 -0.746; #3 1.88
PRAME-AS: #1 1.97; #2 0.0451; #3 -0.202
MAGEB5: #1 3.57; #2 1.54; #3 0.678
TRAIP: #1 7.9 (active); #2 0.42; #3 13.3 (active)
ICA1: #1 -0.616; #2 0.377; #3 0.347
ACR: #1 0.458; #2 -0.454; #3 -0.000968
ARHGEF4: #1 -0.263; #2 1.92; #3 -0.632
LILRB1: #1 0.704; #2 0.416; #3 0.982
KRTAP6-2: #1 0.259; #2 -0.146; #3 -0.0886
RAB9B: #1 -1.59; #2 0.331; #3 -0.956

Reagents listed above with an active call (3):
G2 robust z-score, by gene symbol and reagent
GABRR2: #1 5.19 (active)
TRAIP: #1 7.9 (active); #3 13.3 (active)
